US20170114145A1
These are yes or no findings as the source states them, for the method shown. Some results given as binding are weak or reduced against the parent protein; the word gives no strength. Tags and fused reporters may be left off the sequences shown.

Amino acid sequences for entries named in this document (tags omitted). A change or cut given only in a name is not applied to a line headed by its entry.
UniProt O75581: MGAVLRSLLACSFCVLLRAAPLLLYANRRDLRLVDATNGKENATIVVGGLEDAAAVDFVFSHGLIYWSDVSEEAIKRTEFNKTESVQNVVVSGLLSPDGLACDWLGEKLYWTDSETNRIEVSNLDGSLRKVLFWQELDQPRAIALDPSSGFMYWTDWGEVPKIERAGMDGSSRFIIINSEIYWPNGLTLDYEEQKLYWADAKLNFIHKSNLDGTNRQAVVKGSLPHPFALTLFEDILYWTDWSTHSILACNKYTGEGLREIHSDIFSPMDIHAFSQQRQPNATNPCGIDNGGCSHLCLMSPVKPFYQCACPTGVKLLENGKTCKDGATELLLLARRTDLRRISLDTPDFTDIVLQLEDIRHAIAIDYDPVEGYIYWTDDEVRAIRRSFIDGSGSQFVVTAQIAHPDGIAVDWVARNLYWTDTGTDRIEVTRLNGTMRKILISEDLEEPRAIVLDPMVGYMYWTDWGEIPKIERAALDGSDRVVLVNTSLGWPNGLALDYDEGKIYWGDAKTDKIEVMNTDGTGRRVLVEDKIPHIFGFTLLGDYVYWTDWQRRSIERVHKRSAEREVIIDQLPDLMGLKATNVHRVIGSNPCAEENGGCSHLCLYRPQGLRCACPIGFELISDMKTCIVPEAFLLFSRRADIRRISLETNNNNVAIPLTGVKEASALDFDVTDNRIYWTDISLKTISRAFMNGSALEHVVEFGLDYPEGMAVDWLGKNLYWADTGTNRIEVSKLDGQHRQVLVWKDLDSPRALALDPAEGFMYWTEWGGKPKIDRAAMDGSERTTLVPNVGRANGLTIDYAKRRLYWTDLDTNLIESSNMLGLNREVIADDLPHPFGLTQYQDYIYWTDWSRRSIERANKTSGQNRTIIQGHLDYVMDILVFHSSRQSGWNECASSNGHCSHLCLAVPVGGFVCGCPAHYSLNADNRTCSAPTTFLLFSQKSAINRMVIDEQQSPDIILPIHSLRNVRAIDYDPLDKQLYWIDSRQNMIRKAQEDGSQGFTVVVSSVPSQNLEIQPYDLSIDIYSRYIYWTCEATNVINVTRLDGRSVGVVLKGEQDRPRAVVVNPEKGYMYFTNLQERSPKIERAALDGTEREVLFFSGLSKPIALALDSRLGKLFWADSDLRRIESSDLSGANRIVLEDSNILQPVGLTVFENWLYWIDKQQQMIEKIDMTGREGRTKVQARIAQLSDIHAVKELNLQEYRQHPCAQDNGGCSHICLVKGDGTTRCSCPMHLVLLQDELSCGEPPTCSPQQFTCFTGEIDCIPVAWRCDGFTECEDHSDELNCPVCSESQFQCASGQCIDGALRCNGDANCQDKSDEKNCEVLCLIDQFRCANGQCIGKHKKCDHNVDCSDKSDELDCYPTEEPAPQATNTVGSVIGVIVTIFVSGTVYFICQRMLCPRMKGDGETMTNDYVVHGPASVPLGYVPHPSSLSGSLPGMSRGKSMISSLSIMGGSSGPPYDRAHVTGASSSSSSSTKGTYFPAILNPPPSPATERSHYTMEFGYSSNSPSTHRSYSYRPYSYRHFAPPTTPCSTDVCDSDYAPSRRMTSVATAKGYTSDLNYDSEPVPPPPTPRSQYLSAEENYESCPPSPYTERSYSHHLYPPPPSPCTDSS
UniProt Q9ULT6: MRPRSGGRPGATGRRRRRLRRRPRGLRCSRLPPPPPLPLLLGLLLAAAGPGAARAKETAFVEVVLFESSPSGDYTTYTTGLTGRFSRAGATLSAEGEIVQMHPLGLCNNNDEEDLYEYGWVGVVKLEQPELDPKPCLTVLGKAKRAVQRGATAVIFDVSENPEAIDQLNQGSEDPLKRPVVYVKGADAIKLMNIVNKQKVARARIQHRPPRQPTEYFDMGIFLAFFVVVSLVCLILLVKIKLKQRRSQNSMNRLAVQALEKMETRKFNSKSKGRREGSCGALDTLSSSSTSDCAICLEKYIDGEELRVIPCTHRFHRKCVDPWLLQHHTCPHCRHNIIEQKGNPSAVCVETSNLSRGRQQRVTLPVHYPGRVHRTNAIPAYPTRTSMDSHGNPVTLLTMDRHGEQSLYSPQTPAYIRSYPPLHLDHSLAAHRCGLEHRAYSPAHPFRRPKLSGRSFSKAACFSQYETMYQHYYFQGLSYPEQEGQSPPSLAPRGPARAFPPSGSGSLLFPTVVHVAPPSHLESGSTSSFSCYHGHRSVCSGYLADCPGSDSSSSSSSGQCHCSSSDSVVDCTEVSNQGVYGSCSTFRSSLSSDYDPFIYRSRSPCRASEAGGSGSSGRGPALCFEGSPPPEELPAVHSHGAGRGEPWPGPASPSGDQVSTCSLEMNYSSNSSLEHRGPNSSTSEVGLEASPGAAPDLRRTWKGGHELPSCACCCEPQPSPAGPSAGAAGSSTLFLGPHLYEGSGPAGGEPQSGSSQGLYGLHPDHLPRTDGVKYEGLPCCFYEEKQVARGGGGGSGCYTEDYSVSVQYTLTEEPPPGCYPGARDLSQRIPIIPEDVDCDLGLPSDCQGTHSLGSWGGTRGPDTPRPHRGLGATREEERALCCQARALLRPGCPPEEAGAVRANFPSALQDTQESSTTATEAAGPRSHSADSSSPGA

How the values were obtained:
[1] = biological target: T1, RNF43-Fc (Homo sapiens (Human)) (UniProt Q68DV7); assay: ELISA: hRNF43-Fc coated at 4 ug/mL, hLGR5-Fc 1 ug/mL preincubated with or without 1 ug/mL R-spondin 1/2/3/4 or 0.5 ug/mL Norrin, bound hLGR5-Fc detected with anti-FLAG mAb (ternary complex LGR5 / ligand / RNF43)
T1 sequence: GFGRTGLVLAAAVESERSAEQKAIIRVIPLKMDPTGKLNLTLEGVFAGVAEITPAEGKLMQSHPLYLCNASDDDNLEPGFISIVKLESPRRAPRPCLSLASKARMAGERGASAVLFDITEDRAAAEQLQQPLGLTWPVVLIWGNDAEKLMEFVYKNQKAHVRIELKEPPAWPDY

[2] = biological target: LRP6-Fc (Homo sapiens (Human)) (UniProt O75581); assay: ELISA, plate-bound LRP6-Fc, LGR5-Fc preincubated with R-spondin 1/2/3/4 or Norrin, anti-FLAG detection
[3] = biological target: T1, RNF43-Fc (Homo sapiens (Human)); assay: ELISA, plate-bound RNF43-Fc, LGR5-Fc preincubated with R-spondin 1/2/3/4 or Norrin, anti-FLAG detection
[4] = biological target: ZNRF3-Fc (Homo sapiens (Human)) (UniProt Q9ULT6); assay: ELISA, plate-bound ZNRF3-Fc, LGR5-Fc preincubated with R-spondin 1/2/3/4 or Norrin, anti-FLAG detection

Measured: binding

B1: recombinant human LGR5 ectodomain-IgG-Fc fusion (Fc fusion, not shown: a dimerising Fc or GST)
chain: GSSPRSGVLLRGCPTHCHCEPDGRMLLRVDCSDLGLSELPSNLSVFTSYLDLSMNNISQLLPNPLPSLRFLEELRLAGNALTYIPKGAFTGLYSLKVLMLQNNQLRHVPTEALQNLRSLQSLRLDANHISYVPPSCFSGLHSLRHLWLDDNALTEIPVQAFRSLSALQAMTLALNKIHHIPDYAFGNLSSLVVLHLHNNRIHSLGKKCFDGLHSLETLDLNYNNLDEFPTAIRTLSNLKELGFHSNNIRSIPEKAFVGNPSLITIHFYDNPIQFVGRSAFQHLPELRTLTLNGASQITEFPDLTGTANLESLTLTGAQISSLPQTVCNQLPNLQVLDLSYNLLEDLPSFSVCQKLQKIDLRHNEIYEIKVDTFQQLLSLRSLNLAWNKIAIIHPNAFSTLPSLIKLDLSSNLLSSFPITGLHGLTHLKLTGNHALQSLISSENFPELKVIEMPYAYQCCAFGVCENAYKISNQWNKGDNSSMDDLHKKDAGMFQAQDERDLEDFLLDFEEDLKALHSVQCSPSPGPFKPCEHLLDGWLIR
binds: [1] | [2] | [3] | [4]
